Measured values from PubChem BioAssay AID1671190 (National Center for Advancing Translational Sciences (NCATS), 2021).
About 6,100 (1.1%) of roughly 580,000 compounds were called active. The inconclusive results got no clear call from the source; some entries with a clear call stand among them for comparison. Calls follow the shape of the dose curve; as a rule, active = well fitted inhibition curve with a large enough effect; inconclusive = small, poorly fitted or top-dose-only effect, or another doubt; inactive = no such curve, though single readings can be large or run the other way. Potencies beside an inconclusive call are fits to weak or partial responses and may not hold up.

Amino acid sequences for entries named in this document (tags omitted). A change or cut given only in a name is not applied to a line headed by its entry.
UniProt P18054: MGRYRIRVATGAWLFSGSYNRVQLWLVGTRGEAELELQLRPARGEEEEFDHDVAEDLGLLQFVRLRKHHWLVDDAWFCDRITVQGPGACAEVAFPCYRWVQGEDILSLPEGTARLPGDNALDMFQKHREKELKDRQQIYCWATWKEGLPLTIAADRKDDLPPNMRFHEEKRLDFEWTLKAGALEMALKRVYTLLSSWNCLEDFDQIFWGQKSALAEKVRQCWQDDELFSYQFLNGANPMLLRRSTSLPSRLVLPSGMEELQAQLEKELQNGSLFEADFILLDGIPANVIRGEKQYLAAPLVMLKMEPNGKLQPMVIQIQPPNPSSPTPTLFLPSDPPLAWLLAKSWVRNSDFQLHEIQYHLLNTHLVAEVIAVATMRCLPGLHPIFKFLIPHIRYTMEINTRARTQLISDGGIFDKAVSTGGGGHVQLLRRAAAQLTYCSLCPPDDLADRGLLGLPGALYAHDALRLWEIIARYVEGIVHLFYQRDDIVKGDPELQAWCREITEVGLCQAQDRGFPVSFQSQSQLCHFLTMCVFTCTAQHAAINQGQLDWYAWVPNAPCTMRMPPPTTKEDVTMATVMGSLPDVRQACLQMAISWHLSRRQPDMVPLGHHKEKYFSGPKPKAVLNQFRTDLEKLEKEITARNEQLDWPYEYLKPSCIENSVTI

What follows are compounds tested against Polyunsaturated fatty acid lipoxygenase ALOX12 (Homo sapiens) (UniProt P18054) (assay: Primary qHTS assay for inhibitors of human arachidonate 12S-lipoxygenase (ALOX12): Round 2). Conditions: purified 12hLO, xylenol orange hydroperoxide absorbance; series mostly up to 108 µM.
Method in brief: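 Purified human 12hLO (150 nM final) in 25 mM Hepes, 0.01% Triton X-100, pH 7.0 was preincubated 15 min at room temperature with compound. Then 40 uM arachidonic acid was added, 30 min. Hydroperoxide was read by Fe-XO absorbance ratio 573/405 nm.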
Potency is read from the fitted curve at half-maximal effect.

SMILES	Potency
O=C(Nc1ccccc1C(=O)NCc1ccccc1)c1ccccn1	inactive
CCc1cccc2c(/C=C(/C#N)c3nc4cc(C)c(C)cc4[nH]3)c[nH]c12	inactive
N#Cc1cccc(C(=O)OCc2ccccn2)c1	inconclusive: 89.1 µM [inhibitor, single point]
N#C/C(N=Nc1ccccc1O)=N\Nc1ccccc1O	inconclusive: 20 µM [inhibitor, full curve, poor fit]
COc1ccc(CCN2C(=O)c3oc4cc(C)cc(C)c4c(=O)c3C2c2ccc(F)cc2)cc1OC (stereo not given)	inconclusive: 25.1 µM [inhibitor, partial curve]
O=C(C1CCCN1c1nnc(N2CCCC2=O)s1)N1CCN(c2cccc(Cl)c2)CC1 (stereo not given)	inactive
CCOc1ccc(C(=O)Nc2ccc(S(=O)(=O)N3C[C@@H]4C[C@@H](C3)c3cccc(=O)n3C4)cc2)cc1	inconclusive: 28.2 µM [inhibitor, partial curve, poor fit]
O=C(Nc1nncs1)c1cccc(S(=O)(=O)N2CCc3ccccc32)c1	inactive
N#Cc1c(NC(=O)c2cnn3cccnc23)sc2c1CCCC2	inactive
COc1ccc(-n2c(=O)cnc3cnc(Oc4cccc(Cl)c4)nc32)cc1	inactive
CCn1ncc(N2CCCC(CC(=O)N3CCN(c4cccc(Cl)c4)CC3)C2)cc1=O (stereo not given)	inconclusive: 2.82 µM [inhibitor, full curve]
O=C(NC1CCc2ccccc21)c1cc(COc2ccc3c(c2)OCO3)[nH]n1 (stereo not given)	inactive
CC(OC(=O)C1=COCCO1)C(=O)c1ccc(C(C)(C)C)cc1 (stereo not given)	inconclusive: 100 µM [inhibitor, single point]
CCCCN1C(=S)NC[C@@H]1Cc1cccc2ccccc12	inconclusive: 79.4 µM [inhibitor, partial curve, poor fit]
CC(/C=C/C(=O)c1ccc(C)cc1)=C\c1ccccc1	inconclusive: 50.1 µM [inhibitor, single point]
O=C(O)C(c1c[nH]c2ccccc12)N1CCN(CCNc2cc(=O)oc3ccccc23)CC1 (stereo not given)	inconclusive: 39.8 µM [inhibitor, partial curve, poor fit]
Cc1cc(C(=O)O)ccc1-c1ccc(/C=C2\SC(=O)N(CC(=O)Nc3ccc4c(c3)OCO4)C2=O)o1	inconclusive: 56.2 µM [inhibitor, partial curve, poor fit]
CC1=C(CC(=O)c2ccc(Cl)cc2)C(=O)c2ccccc2C1=O	inconclusive: 14.1 µM [inhibitor, partial curve, poor fit]
CCc1nnc(NS(=O)(=O)c2ccc(NC(=O)c3cccc(Br)c3)cc2)s1	inconclusive: 112 µM [inhibitor, single point]
C=C(C)C1CC=C(CN2CC(C)OC(C)C2)CC1 (stereo not given)	inconclusive: 0.355 µM [inhibitor, full curve, poor fit]
Cc1noc(C)c1NC(=O)Nc1ccc2c(c1)C(=O)N([C@H](C)CO)C[C@H](C)[C@H](CN(C)C(=O)NC1CCCCC1)OCCCC[C@@H](C)O2	inconclusive: 126 µM [inhibitor, partial curve, poor fit]
O=S(=O)(c1ccc(-n2cccn2)cc1)N1CCCC2(CCNC2)C1 (stereo not given)	inconclusive: 10 µM [inhibitor, partial curve, poor fit]

Sorted by molecular weight (smallest number first): part of the list above.
SMILES	Potency
COc1ccc(-n2c(=O)cnc3cnc(Oc4cccc(Cl)c4)nc32)cc1	inactive
CCOc1ccc(C(=O)Nc2ccc(S(=O)(=O)N3C[C@@H]4C[C@@H](C3)c3cccc(=O)n3C4)cc2)cc1	inconclusive: 28.2 µM [inhibitor, partial curve, poor fit]
Cc1noc(C)c1NC(=O)Nc1ccc2c(c1)C(=O)N([C@H](C)CO)C[C@H](C)[C@H](CN(C)C(=O)NC1CCCCC1)OCCCC[C@@H](C)O2	inconclusive: 126 µM [inhibitor, partial curve, poor fit]

(list continues)

SMILES	Potency
CC1(C(=O)OCC(=O)N2c3ccccc3Sc3ccccc32)CC1(Cl)Cl (stereo not given)	inactive
COc1ccc2ccccc2c1-c1sc(Nc2ccccc2)n[n+]1-c1ccc(F)cc1	inconclusive: 50.1 µM [inhibitor, partial curve, poor fit]
Cc1ccc(CN2CCC3(CC2)Cc2ccccc2NC3=O)cc1	inconclusive: 112 µM [inhibitor, partial curve]
COc1ccc(C2=CC(=O)N(Nc3ccccc3)C2=O)cc1	inconclusive: 17.8 µM [inhibitor, partial curve, poor fit]
CCN(CC)c1nc(-c2nn[nH]n2)nc(N(CC)CC)n1	inconclusive: 2.24 µM [inhibitor, full curve, poor fit]
CCOC(=O)CNC(c1ccccc1)c1cc(Br)ccc1NC(=O)CCN1CCOCC1 (stereo not given)	inconclusive: 44.7 µM [inhibitor, partial curve, poor fit]
c1ccc2c(c1)c1c(c3ccccc32)CN2CCCC2C1 (stereo not given)	inconclusive: 50.1 µM [inhibitor, partial curve, poor fit]
COc1ccc(Nc2nc(NCc3ccco3)nc(N/N=C/c3ccc(O)cc3)n2)cc1	inactive
CC(=O)N1CCC2(CC1)Oc1ccc(Br)cc1C1CC(c3ccccn3)=NN12 (stereo not given)	inconclusive: 31.6 µM [inhibitor, partial curve, poor fit]
COC(=O)c1cc2c(c3c4cc(C)ccc4n(S(=O)(=O)c4ccc(C)cc4)c13)C(=O)N(Cc1ccccc1)C2	inactive
Cc1ccc(Cc2c(-c3cccc(Br)c3)nc3c(Cl)cc(C(F)(F)F)cn23)cc1	inactive
Cc1ccccc1-c1ccc(CN2CCN(C)C(CCO)C2)cc1 (stereo not given)	inconclusive: 126 µM [inhibitor, single point]
CCC1CCC(C(=O)NC(CCSC)C(=O)NCCN(CC(C)C)CC(C)C)CC1 (stereo not given)	inactive
COc1ccc(OC)c(C2=Nn3c(nnc3-c3ccncc3)SC2)c1	inactive
O=C(COc1ccc([N+](=O)[O-])cc1)Nc1cccnc1	inactive
COc1ccccc1-c1sc2cc3c(cc2c1C#CCO)OCO3	inconclusive: 35.5 µM [inhibitor, partial curve]
COc1ccc(Nc2cc(C)nc(N3CCN(C(=O)Nc4ccc(F)cc4)CC3)n2)cc1	inactive
COc1ccccc1Nc1nc(N)c(C(=O)c2cc(C)c(C)cc2C)s1	inconclusive: 100 µM [inhibitor, single point]
CCc1ccc(CNC(=O)Cc2ccc(NC(=O)N3CCSc4ncccc43)cc2)cc1	inconclusive: 70.8 µM [inhibitor, partial curve, poor fit]
Cc1ccc(C)c(CS(=O)(=O)Cc2noc(C(C)(C)C)n2)c1	inactive
CCN(CC)S(=O)(=O)c1ccc(N2CCCCC2)c(NC(=O)/C=C/c2ccc(OC)c(OC)c2)c1	inactive
CNC(=S)Nc1ccc([N+](=O)[O-])cc1C	inconclusive: 56.2 µM [inhibitor, partial curve, poor fit]

16 structures out of the list, sorted by SMILES length, ascending:
SMILES	Potency
CNC(=S)Nc1ccc([N+](=O)[O-])cc1C	inconclusive: 56.2 µM [inhibitor, partial curve, poor fit]
c1ccc2c(c1)c1c(c3ccccc32)CN2CCCC2C1 (stereo not given)	inconclusive: 50.1 µM [inhibitor, partial curve, poor fit]
COc1ccccc1-c1sc2cc3c(cc2c1C#CCO)OCO3	inconclusive: 35.5 µM [inhibitor, partial curve]
Cc1ccccc1-c1ccc(CN2CCN(C)C(CCO)C2)cc1 (stereo not given)	inconclusive: 126 µM [inhibitor, single point]
O=C(COc1ccc([N+](=O)[O-])cc1)Nc1cccnc1	inactive
COc1ccc(OC)c(C2=Nn3c(nnc3-c3ccncc3)SC2)c1	inactive
Cc1ccc(C)c(CS(=O)(=O)Cc2noc(C(C)(C)C)n2)c1	inactive
CC1(C(=O)OCC(=O)N2c3ccccc3Sc3ccccc32)CC1(Cl)Cl (stereo not given)	inactive
CCC1CCC(C(=O)NC(CCSC)C(=O)NCCN(CC(C)C)CC(C)C)CC1 (stereo not given)	inactive
CCOC(=O)CNC(c1ccccc1)c1cc(Br)ccc1NC(=O)CCN1CCOCC1 (stereo not given)	inconclusive: 44.7 µM [inhibitor, partial curve, poor fit]
CCc1ccc(CNC(=O)Cc2ccc(NC(=O)N3CCSc4ncccc43)cc2)cc1	inconclusive: 70.8 µM [inhibitor, partial curve, poor fit]
COc1ccc(Nc2nc(NCc3ccco3)nc(N/N=C/c3ccc(O)cc3)n2)cc1	inactive
COc1ccc(Nc2cc(C)nc(N3CCN(C(=O)Nc4ccc(F)cc4)CC3)n2)cc1	inactive
Cc1ccc(Cc2c(-c3cccc(Br)c3)nc3c(Cl)cc(C(F)(F)F)cn23)cc1	inactive
CCN(CC)S(=O)(=O)c1ccc(N2CCCCC2)c(NC(=O)/C=C/c2ccc(OC)c(OC)c2)c1	inactive
COC(=O)c1cc2c(c3c4cc(C)ccc4n(S(=O)(=O)c4ccc(C)cc4)c13)C(=O)N(Cc1ccccc1)C2	inactive

(continued)

SMILES	Potency
CCN(CC)C(=O)CSc1nc(N)c2c3c(sc2n1)CC(C)CC3 (stereo not given)	inconclusive: 126 µM [inhibitor, single point]
C/C(=N/NS(=O)(=O)c1ccc(C(C)C)cc1)c1ccncc1	inconclusive: 44.7 µM [inhibitor, partial curve, poor fit]
S=c1c2c(nc3nc[nH]n13)CCC2	inconclusive: 0.562 µM [inhibitor, full curve, poor fit]
OC(c1ccccc1)(c1ccccc1)C1CCN(CCCOc2ccc(C(F)(F)F)cc2)CC1	inconclusive: 50.1 µM [inhibitor, partial curve, poor fit]
Cc1ccc(S(=O)(=O)N2[C@@H](c3ccc(Cl)cc3)C(C(=O)O)=CC[C@H]2c2cccc(Cl)c2)cc1	inactive
CCCN(CC1COc2ccccc2O1)C(=O)CSc1nnnn1C1CCCC1 (stereo not given)	inconclusive: 50.1 µM [inhibitor, partial curve, poor fit]
CCn1c2ccccc2c2cc(CN3CCN(C(=O)c4ccco4)CC3)ccc21	active: 0.562 µM
Cc1ccc(C(=O)/C=C/c2cc(Br)ccc2F)o1	inconclusive: 44.7 µM [inhibitor, partial curve, poor fit]
OC(c1ccccc1)(c1nc(-c2ccc(F)c(Cl)c2)cs1)C(F)(F)F (stereo not given)	inconclusive: 50.1 µM [inhibitor, partial curve, poor fit]
CC(=O)Oc1ccc2c(=O)c(N3C(=O)c4ccccc4C3=O)c(C)oc2c1C	inconclusive: 100 µM [inhibitor, single point]
CNC(=O)[C@@H](c1ccccc1)N1CCC[C@H]1C(=O)NCc1ccncc1	inconclusive: 12.6 µM [inhibitor, full curve, poor fit]
O=c1[nH]nc(SCc2ccccc2Cl)n1-c1ccc2c(c1)OCCO2	inconclusive: 112 µM [inhibitor, single point]
Nc1nc2c(-c3ccc(Br)cc3)nnn2c2ccccc12	inactive
CCN(CC)CCNc1ccc(C)c2sc3ccc(O)cc3c(=O)c12	inconclusive: 44.7 µM [inhibitor, partial curve, poor fit]
CN(CC(=O)Nc1cccc2ccccc12)C(=O)CSc1nccn1-c1cccc(F)c1	inconclusive: 89.1 µM [inhibitor, partial curve, poor fit]
COc1ccc(-c2cc(-c3ccccc3)no2)cc1	inactive
Cc1[nH]c2ccc(Br)cc2c(=S)c1C/C=C/Cl	inconclusive: 44.7 µM [inhibitor, partial curve, poor fit]
Cn1c(C(=O)NCCN2CCOCC2)nc2nc(-c3ccccc3)c(Cl)cc21	inconclusive: 12.6 µM [inhibitor, full curve, poor fit]
COc1ccc(C2CC(c3ccc(Cl)cc3)=NN2C(C)=O)cc1 (stereo not given)	inconclusive: 70.8 µM [inhibitor, partial curve, poor fit]
Cc1ccccc1NC1(c2nnnn2-c2ccccc2)CCCCC1	inactive
COc1ccccc1-c1nc(NCc2ccccc2)c2ccccc2n1	inconclusive: 56.2 µM [inhibitor, partial curve, poor fit]
